Negatives hold for the conditions tested. At least one verdict rests on a figure or table, not on a statement of the authors. For some assays here: For at least one entry, the source does not settle the construct or the ends of the probe.
Assays:
MetJ Q45K = MetJ Q45K (UniProt P0A8U6); assay: SPR; details: SAM; SPR: 1 mM SAM, 0.4 mM CoCl2 or 0.5 mM Trp, 100 ul/min, streptavidin CM5 chip; running buffer; recombinant protein; residues 2-105; protein details: 8xHis, TEV-cleaved; label: 3' biotin on anchor strand S4 (SPR)
TrpR = TrpR (UniProt P0A881); assay: SPR; details: Trp; SPR: 1 mM SAM, 0.4 mM CoCl2 or 0.5 mM Trp, 100 ul/min, streptavidin CM5 chip; running buffer; recombinant protein; protein details: 8xHis, TEV-cleaved; label: 3' biotin on anchor strand S4 (SPR)

| Sequence | binding result (MetJ Q45K) | binding result (TrpR) |
| --- | --- | --- |
| CCACGCCCTAAGGTGAGCATAGTGGTACTCGCTAGCGAGTACCTCTGACTTC / GAAGTCAGAGGTACTCGCTAGCGAGTACCACTATGCTC [trpR single site (NR206/NR207)] | no binding | – |
| CCACGCCCTAAGGTATGCTAGTTTGAGACGTCTCAAAACAGGA / TCCTGTTTTGAGACGTCTCAAACTAGCAT [metJ single site (NR139 top/bottom)] | – | no binding |

From PMC13379313
